This assay concerns the target regulatory subunit of protein kinase A (PKARIIα) (human (endogenous in HuT78)) (UniProt P13861). In words: co-IP; endogenous proteins; lysates of HuT78 T-cells, unstimulated or stimulated on rICAM-1 (1 h), control or CG-NAP knockdown (GapmeR); immunoprecipitated overnight at 4°C with 2 µg anti-PKARIIα antibody or control IgG, protein A/G plus agarose; washed five times (20 mM HEPES pH 7.4, 0.1% Triton X-100, 130 mM NaCl, 10% glycerol); Western blot. (In general: Immunoblotting shows a protein as a band on a membrane.)

The chains behind the UniProt entries cited, without tags or fusion partners.
UniProt P13861: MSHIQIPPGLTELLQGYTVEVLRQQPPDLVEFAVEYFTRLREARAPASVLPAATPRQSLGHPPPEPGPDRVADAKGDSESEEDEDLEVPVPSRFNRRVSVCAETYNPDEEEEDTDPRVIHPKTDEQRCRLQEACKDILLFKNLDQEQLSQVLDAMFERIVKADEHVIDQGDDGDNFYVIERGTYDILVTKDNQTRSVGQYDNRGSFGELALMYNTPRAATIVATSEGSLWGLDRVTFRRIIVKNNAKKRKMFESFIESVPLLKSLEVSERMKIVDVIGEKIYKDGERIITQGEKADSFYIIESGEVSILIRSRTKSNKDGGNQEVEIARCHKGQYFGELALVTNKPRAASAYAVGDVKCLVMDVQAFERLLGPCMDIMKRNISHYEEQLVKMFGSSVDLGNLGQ
UniProt Q99996: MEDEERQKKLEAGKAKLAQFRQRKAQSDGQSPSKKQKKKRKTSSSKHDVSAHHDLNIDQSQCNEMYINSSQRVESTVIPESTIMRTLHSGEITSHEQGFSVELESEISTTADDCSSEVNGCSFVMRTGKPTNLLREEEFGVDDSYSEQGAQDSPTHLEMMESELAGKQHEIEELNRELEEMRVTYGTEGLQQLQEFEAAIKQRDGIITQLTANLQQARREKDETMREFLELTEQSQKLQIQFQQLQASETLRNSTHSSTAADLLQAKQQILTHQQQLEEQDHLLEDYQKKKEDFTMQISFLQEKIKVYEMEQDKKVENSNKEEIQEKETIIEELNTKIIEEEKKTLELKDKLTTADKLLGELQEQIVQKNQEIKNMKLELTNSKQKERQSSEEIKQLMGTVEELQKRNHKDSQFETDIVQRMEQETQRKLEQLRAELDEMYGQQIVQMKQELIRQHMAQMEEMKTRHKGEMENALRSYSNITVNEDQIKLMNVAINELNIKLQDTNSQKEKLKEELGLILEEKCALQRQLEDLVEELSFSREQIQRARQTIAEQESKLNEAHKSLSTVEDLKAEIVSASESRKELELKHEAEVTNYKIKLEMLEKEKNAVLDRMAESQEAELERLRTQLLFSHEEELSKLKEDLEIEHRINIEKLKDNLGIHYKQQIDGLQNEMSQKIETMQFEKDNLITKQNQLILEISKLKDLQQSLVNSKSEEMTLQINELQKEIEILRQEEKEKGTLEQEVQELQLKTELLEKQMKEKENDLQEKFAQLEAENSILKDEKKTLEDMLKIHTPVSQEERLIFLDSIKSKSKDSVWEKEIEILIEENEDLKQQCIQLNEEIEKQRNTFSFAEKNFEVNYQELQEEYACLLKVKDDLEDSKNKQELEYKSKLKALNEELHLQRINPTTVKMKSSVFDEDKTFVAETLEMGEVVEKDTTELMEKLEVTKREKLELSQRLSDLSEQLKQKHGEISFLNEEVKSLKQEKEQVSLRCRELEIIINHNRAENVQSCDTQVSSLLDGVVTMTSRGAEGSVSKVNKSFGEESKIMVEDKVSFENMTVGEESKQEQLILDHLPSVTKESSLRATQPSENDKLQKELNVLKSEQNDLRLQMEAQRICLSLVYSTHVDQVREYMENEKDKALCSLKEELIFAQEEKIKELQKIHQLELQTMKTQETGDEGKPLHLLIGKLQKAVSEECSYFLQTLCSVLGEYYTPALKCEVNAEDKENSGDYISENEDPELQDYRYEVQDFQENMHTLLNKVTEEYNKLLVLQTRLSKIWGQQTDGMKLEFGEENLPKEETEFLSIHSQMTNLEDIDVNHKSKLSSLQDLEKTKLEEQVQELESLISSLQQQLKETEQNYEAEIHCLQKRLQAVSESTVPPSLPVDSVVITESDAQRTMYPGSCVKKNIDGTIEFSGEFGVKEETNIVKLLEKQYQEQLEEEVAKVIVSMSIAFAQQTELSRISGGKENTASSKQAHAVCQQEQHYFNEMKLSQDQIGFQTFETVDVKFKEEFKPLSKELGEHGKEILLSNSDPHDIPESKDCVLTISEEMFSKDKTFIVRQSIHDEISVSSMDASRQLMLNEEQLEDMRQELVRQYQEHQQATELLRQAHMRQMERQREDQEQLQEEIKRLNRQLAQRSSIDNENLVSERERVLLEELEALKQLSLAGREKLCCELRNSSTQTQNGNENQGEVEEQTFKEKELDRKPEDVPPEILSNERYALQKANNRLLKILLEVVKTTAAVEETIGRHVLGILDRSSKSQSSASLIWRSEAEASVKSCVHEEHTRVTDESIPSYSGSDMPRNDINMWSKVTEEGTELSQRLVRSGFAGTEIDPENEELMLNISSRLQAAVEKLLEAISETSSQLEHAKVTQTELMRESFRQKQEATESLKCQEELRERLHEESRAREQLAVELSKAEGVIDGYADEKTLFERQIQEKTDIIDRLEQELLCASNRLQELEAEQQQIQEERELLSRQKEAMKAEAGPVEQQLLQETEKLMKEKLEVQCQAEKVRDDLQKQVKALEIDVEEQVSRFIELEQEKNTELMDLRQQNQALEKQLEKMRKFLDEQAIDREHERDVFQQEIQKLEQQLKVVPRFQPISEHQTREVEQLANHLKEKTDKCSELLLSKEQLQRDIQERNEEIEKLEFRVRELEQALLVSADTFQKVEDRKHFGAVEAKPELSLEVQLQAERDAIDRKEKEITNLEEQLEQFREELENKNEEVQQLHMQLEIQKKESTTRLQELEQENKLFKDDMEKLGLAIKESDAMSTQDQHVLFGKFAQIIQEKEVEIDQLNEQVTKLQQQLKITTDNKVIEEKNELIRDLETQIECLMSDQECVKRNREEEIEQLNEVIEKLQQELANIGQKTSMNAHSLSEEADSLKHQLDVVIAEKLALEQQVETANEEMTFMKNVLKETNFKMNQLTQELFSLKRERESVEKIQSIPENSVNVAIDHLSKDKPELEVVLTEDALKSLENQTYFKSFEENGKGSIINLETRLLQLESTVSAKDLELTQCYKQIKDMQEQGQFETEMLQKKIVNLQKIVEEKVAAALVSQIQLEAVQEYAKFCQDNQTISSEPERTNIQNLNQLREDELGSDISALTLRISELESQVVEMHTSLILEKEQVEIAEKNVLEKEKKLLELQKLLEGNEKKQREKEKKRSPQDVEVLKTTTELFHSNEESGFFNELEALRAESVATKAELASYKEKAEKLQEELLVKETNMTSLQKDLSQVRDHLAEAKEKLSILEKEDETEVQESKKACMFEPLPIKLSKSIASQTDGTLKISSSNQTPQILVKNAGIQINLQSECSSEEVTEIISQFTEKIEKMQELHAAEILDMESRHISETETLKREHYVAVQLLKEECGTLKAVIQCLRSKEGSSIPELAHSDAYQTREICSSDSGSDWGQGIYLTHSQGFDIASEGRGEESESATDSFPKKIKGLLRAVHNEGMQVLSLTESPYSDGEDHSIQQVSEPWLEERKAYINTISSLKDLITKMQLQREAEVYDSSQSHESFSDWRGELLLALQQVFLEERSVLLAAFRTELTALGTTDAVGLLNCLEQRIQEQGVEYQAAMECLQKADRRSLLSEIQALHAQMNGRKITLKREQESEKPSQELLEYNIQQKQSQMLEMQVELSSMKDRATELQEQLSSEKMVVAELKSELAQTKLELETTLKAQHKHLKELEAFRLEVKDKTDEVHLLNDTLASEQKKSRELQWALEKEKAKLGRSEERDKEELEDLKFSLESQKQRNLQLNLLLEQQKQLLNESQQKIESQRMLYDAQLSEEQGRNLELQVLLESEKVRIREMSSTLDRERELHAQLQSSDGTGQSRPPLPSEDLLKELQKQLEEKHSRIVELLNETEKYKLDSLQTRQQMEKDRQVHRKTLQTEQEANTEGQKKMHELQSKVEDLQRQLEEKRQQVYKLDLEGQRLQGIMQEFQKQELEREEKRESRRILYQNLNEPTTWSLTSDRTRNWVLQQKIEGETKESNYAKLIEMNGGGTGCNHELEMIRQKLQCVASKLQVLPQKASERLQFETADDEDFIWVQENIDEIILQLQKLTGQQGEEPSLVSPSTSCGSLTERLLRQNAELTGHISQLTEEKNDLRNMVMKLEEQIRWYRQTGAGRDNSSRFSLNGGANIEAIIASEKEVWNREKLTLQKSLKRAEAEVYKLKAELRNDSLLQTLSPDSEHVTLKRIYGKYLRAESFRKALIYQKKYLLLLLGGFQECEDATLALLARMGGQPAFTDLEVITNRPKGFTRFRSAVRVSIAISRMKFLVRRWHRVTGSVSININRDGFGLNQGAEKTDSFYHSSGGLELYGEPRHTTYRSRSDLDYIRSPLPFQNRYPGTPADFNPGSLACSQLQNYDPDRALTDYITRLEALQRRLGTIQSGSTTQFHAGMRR

These are yes or no findings as the source states them, for the method shown. Binding seen in cells or lysates may run through a third protein. Some entries that bind do so weakly or less than the wild type.

“Centrosome- and Golgi-localized protein kinase N-associated protein (CG-NAP) (from UniProt Q99996 1-3907)”: the binding result is “binds”.

For the origin of these results see publication PMC5837996.
